Reference: the supplement of paper PMC10849652
This is one part of the list.

The chains behind the UniProt entries cited, without tags or fusion partners. Where a name states a change or a piece, a line headed by the entry shows the natural chain unless it says otherwise.
UniProt P43487, whole entry, looked up: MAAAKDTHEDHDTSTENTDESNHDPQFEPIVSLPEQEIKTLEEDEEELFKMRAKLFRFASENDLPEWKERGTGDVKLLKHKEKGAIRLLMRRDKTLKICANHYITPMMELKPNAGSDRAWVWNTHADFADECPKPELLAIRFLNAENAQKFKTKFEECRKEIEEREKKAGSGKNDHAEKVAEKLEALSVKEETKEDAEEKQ
UniProt P62820, whole entry, looked up: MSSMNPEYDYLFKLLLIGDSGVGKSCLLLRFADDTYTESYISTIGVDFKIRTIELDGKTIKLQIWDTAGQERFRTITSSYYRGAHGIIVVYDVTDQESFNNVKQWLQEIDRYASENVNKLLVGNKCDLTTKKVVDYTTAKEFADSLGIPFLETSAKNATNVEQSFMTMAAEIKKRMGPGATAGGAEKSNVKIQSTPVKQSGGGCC
UniProt Q13636: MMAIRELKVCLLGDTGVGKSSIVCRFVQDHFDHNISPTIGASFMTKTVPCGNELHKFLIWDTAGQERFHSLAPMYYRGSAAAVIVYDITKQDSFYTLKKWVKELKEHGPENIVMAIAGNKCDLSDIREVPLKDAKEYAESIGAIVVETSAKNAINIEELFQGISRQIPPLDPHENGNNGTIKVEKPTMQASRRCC
UniProt Q96S21: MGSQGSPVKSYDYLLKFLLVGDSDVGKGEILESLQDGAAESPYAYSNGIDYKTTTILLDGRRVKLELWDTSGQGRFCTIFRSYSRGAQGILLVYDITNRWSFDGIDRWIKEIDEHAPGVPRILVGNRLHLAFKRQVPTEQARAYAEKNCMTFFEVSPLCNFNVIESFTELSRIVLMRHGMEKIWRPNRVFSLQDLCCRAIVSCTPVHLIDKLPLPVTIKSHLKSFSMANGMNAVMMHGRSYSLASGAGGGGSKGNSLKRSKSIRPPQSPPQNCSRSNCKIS
UniProt Q9Y3L5: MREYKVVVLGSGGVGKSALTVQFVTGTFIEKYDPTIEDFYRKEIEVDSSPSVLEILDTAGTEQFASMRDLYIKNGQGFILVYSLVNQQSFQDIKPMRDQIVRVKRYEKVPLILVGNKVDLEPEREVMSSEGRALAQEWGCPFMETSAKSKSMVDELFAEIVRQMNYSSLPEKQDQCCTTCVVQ
UniProt Q9H0H5: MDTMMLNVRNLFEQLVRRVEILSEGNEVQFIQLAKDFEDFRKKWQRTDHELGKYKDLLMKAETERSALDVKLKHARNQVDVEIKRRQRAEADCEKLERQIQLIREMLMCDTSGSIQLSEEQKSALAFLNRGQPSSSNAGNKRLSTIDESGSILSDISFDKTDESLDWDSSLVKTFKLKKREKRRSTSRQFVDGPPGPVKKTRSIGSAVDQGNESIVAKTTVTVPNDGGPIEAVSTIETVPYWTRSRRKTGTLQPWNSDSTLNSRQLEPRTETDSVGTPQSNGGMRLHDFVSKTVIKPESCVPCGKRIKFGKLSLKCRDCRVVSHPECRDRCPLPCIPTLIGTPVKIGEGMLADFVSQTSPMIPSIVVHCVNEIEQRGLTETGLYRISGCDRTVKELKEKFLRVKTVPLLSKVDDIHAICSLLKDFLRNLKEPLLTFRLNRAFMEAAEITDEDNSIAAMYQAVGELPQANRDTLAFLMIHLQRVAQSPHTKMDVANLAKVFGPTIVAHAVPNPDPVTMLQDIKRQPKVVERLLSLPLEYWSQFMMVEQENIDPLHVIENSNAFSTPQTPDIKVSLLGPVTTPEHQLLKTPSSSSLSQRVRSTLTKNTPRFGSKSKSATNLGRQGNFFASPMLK
UniProt Q9UJ41, whole entry, looked up: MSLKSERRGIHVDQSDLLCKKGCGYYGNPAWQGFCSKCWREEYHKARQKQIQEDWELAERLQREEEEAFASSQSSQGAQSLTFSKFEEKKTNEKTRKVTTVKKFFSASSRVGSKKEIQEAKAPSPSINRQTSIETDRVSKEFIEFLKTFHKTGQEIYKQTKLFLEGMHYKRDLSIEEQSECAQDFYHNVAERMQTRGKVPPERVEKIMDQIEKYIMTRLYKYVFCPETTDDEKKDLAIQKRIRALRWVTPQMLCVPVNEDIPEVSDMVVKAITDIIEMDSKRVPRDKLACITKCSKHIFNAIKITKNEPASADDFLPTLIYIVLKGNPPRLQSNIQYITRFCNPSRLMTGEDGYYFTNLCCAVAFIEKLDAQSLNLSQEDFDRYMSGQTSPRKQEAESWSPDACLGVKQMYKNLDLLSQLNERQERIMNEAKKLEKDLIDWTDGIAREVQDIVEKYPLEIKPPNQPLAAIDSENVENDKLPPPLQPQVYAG
UniProt Q9Y4B4: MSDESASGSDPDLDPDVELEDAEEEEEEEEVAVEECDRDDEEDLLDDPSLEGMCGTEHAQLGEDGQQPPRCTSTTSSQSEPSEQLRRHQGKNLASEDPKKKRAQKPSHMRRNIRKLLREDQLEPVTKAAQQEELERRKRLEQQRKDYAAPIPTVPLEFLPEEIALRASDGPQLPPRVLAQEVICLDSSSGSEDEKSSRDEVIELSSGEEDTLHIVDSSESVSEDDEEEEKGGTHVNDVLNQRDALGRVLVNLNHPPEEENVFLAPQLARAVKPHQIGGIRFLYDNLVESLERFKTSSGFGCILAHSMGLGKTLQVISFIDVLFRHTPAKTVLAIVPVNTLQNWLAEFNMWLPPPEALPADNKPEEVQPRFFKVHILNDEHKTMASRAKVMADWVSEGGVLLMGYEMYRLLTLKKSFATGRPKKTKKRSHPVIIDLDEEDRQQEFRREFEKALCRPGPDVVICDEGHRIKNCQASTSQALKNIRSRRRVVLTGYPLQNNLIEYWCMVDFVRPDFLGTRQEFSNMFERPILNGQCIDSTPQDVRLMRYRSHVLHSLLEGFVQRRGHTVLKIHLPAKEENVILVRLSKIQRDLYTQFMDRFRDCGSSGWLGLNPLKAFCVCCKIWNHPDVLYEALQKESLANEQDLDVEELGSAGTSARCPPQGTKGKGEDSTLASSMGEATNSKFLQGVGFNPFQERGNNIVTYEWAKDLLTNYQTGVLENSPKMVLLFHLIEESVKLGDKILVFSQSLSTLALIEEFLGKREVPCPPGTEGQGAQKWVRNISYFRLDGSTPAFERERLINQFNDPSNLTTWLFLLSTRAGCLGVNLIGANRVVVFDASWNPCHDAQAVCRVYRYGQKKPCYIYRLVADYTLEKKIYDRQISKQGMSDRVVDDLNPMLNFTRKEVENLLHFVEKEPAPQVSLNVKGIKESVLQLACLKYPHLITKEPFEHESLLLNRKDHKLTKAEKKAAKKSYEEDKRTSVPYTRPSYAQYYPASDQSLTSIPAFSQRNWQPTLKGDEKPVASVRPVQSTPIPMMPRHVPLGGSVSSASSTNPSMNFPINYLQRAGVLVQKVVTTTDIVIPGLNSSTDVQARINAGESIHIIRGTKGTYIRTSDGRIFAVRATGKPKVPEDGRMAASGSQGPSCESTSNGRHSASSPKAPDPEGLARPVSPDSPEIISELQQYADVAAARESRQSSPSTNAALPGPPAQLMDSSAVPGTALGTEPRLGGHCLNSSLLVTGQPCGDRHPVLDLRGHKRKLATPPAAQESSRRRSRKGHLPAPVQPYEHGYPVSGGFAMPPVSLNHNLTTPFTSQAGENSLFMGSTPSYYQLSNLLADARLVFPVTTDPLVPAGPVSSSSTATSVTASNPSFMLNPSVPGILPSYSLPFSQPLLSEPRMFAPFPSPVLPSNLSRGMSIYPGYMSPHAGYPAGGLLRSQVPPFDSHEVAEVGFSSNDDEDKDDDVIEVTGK
UniProt Q6K0P9: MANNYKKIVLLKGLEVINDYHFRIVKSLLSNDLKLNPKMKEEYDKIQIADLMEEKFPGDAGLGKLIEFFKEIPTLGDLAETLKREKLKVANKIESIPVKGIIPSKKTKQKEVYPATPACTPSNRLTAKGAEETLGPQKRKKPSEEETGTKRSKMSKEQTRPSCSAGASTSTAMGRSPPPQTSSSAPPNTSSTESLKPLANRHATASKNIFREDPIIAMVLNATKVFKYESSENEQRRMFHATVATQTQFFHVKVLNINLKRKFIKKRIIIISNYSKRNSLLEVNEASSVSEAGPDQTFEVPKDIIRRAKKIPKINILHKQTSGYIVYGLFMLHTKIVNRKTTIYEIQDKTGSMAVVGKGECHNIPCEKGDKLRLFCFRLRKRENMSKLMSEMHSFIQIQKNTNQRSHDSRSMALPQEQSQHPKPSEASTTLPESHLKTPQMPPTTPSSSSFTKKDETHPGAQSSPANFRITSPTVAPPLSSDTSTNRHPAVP
UniProt Q9H6Z4: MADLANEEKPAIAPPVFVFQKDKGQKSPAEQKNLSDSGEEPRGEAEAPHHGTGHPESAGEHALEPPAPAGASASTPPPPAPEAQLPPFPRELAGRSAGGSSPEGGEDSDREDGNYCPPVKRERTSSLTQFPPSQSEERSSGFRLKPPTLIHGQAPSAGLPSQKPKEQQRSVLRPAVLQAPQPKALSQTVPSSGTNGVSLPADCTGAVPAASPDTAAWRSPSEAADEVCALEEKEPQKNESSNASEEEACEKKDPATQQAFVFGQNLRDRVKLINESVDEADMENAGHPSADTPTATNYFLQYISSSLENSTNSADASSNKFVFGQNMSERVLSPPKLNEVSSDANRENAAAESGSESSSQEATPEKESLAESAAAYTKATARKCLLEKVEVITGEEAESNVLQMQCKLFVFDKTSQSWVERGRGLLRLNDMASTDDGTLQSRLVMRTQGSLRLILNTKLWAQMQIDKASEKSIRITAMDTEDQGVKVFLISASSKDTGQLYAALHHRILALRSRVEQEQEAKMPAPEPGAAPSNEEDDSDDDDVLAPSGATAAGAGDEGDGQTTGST
UniProt Q9ULZ3, whole entry, looked up: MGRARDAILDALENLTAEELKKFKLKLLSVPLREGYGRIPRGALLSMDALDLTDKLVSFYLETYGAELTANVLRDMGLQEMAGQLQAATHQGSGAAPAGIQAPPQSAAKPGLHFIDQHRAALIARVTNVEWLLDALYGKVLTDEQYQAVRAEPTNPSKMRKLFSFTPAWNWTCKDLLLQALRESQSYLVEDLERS
UniProt Q86X10: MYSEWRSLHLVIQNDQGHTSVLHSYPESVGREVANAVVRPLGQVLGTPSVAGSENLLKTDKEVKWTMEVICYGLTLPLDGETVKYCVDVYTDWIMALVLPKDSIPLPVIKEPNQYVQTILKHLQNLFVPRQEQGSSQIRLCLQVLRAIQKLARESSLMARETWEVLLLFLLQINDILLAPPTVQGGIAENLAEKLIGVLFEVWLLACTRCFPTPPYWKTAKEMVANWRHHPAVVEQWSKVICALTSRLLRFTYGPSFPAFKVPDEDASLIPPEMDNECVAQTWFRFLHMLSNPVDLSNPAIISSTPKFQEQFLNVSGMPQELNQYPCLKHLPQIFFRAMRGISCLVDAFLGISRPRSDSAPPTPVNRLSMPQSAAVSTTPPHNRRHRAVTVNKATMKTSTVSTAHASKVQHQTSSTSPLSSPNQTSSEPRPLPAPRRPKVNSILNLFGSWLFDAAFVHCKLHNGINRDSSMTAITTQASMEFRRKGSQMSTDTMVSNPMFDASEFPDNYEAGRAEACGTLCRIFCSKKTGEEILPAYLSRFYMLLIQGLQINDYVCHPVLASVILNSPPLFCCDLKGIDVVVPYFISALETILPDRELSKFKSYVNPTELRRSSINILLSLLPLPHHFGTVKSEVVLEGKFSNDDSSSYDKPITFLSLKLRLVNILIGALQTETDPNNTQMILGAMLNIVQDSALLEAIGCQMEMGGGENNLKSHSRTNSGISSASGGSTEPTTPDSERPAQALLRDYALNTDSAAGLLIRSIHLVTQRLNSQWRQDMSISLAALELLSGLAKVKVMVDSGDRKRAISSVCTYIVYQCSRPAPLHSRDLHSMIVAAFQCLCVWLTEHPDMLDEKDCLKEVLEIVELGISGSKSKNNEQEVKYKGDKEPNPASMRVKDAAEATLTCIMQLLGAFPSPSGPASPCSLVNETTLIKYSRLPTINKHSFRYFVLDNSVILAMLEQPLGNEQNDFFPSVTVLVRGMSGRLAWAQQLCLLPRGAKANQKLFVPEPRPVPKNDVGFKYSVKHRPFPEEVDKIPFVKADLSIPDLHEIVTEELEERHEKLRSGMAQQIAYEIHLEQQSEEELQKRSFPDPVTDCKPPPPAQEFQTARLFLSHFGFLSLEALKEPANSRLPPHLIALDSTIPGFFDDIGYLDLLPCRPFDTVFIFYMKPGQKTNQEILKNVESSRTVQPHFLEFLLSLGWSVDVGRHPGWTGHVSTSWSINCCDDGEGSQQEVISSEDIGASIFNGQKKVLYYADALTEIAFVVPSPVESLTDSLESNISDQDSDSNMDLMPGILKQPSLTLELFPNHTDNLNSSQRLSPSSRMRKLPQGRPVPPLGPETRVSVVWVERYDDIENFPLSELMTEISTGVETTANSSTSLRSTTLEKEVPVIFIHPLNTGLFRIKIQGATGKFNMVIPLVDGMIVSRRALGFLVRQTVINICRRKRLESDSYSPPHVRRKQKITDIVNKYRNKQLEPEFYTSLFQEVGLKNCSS

Tests used:
Experiment in all cases: log2 fold change, soluble protein after heating vs DMSO (PISA); higher = thermal stabilisation; K562 lysate, 10 uM; active = over 0.2 and 3.5 SD of the protein, either way, in both replicates (recomputed)
alvocidib = compound: CN1CC[C@H](c2c(O)cc(O)c3c(=O)cc(-c4ccccc4Cl)oc23)[C@H](O)C1 [alvocidib]
Summary of the method: (§1)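 Quantification was by TMTpro 16plex LC-MS/MS with equalised channel sums, applied to the supernatant after 21,000xg for 90 min. Samples were crude K562 extract at 1 mg/mL protein in PBS pH 7.4 with 1 mM MgCl2, treated with 10 μM compound for 30 min, heated for 3 min across 48°C-58°C, pooled and brought to 0.5% NP-40 at 4°C. Values are log-two fold changes in thermal stability relative to solvent controls, from duplicates.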

Tubastatin A = compound: CN1CCc2c(c3ccccc3n2Cc2ccc(C(=O)NO)cc2)C1 [Tubastatin A]
Summary of the method: as §1

[1] = compound: CNC(=O)C1=CC=CC=C1NC2=NC(=NC=C2Cl)NC3=C(C=C(C=C3)N4CCOCC4)OC
Summary of the method: as §1

defactinib = compound: CNC(=O)c1ccc(Nc2ncc(C(F)(F)F)c(NCc3nccnc3N(C)S(C)(=O)=O)n2)cc1 [defactinib]
Summary of the method: as §1

[2] = compound: CNc1nc(-c2ccc3c(N)n[nH]c3c2)cc(N2C[C@@H](C(=O)NC3CCCCC3)CC[C@H]2C)n1
Summary of the method: as §1

encorafenib = compound: COC(=O)N[C@@H](C)CNc1nccc(-c2cn(C(C)C)nc2-c2cc(Cl)cc(NS(C)(=O)=O)c2F)n1 [encorafenib]
Summary of the method: as §1

[3] = compound: COC(=O)[C@H](CCSC)NC(=O)C1=C(C=C(C=C1)NC[C@H](CS)N)C2=CC=CC=C2
Summary of the method: as §1

alisertib = compound: COc1cc(Nc2ncc3c(n2)-c2ccc(Cl)cc2C(c2c(F)cccc2OC)=NC3)ccc1C(=O)O [alisertib]
Summary of the method: as §1

[4] = compound: COc1cc2nc(-c3cc(F)ccc3O)nc(N[C@@H]3CNC[C@H]3C(C)(C)O)c2cc1OC
Summary of the method: as §1

gefitinib = compound: COc1cc2ncnc(Nc3ccc(F)c(Cl)c3)c2cc1OCCCN1CCOCC1 [gefitinib]
Summary of the method: as §1

Measured: log2 fold change

RAPGEF2, A0A2R8YGD3
active: Tubastatin A 0.236
inactive: alvocidib -0.241 | [1] 0.017 | defactinib 0.119 | [2] 0.025 | encorafenib 0.017 | [3] 0.021 | alisertib 0.007 | [4] -0.017 | gefitinib -0.042

RANBP1 (UniProt P43487)
inactive: alvocidib 0.001 | Tubastatin A 0.055 | [1] -0.022 | defactinib -0.006 | [2] -0.023 | encorafenib -0.027 | [3] -0.026 | alisertib -0.009 | [4] -0.002 | gefitinib 0.01

RALGPS2 (UniProt Q86X27)
inactive: alvocidib -0.092 | Tubastatin A 0.015 | [1] 0.026 | defactinib -0.015 | encorafenib -0.038 | [3] 0.038 | alisertib -0.249 | gefitinib -0.061

RAB1A (UniProt P62820)
inactive: alvocidib -0.001 | Tubastatin A 0.01 | [1] -0.002 | defactinib 0 | [2] -0.033 | encorafenib 0.05 | [3] -0.044 | alisertib 0.04 | [4] 0.016 | gefitinib 0.014

RAB31 (UniProt Q13636)
inactive: alvocidib -0.011 | Tubastatin A 0.047 | [1] 0 | defactinib 0.037 | [2] 0.038 | encorafenib -0.001 | [3] -0.026 | alisertib -0.013 | [4] 0.083 | gefitinib -0.021

RAB40C (UniProt Q96S21)
inactive: alvocidib -0.072 | Tubastatin A 0.048 | [1] -0.04 | defactinib -0.125 | encorafenib -0.047 | [3] -0.029 | alisertib -0.059 | [4] 0.091 | gefitinib 0.067

RAP2C (UniProt Q9Y3L5)
inactive: alvocidib 0.051 | Tubastatin A 0.039 | [1] 0.037 | defactinib -0.025 | [2] -0.051 | encorafenib -0.056 | [3] -0.001 | alisertib 0.026 | [4] 0.059 | gefitinib -0.089

RABGAP1L isoform 5 (UniProt Q5R372)
inactive: alvocidib -0.065 | Tubastatin A 0.067 | [1] -0.03 | defactinib 0.055 | [2] 0.066 | encorafenib 0.01 | [3] -0.096 | alisertib -0.053 | [4] 0 | gefitinib 0.009

RACGAP1 (UniProt Q9H0H5)
inactive: alvocidib -0.031 | Tubastatin A -0.091 | [1] 0.055 | defactinib -0.039 | [2] -0.033 | encorafenib 0.057 | [3] -0.07 | alisertib -0.067 | [4] -0.091 | gefitinib 0.002

RABGEF1 isoform 3 (UniProt Q9UJ41)
inactive: alvocidib 0.002 | Tubastatin A 0.023 | [1] -0.029 | defactinib -0.001 | [2] -0.069 | encorafenib -0.018 | [3] -0.037 | alisertib -0.018 | [4] -0.007 | gefitinib -0.027

RAPGEF4 (UniProt Q8WZA2)
inactive: alvocidib -0.367 | Tubastatin A 0.156 | [1] 0.061 | defactinib -0.023 | [2] 0.433 | encorafenib 0.018 | [3] 0.147 | [4] 0.196

RAB28 (UniProt P51157)
inactive: alvocidib -0.024 | Tubastatin A -0.084 | [1] 0 | defactinib -0.019 | [2] -0.132 | encorafenib 0.024 | [3] 0.092 | [4] 0.04

RACK1 (UniProt D6RHH4)
inactive: alvocidib 0.028 | defactinib 0.041

2 entries picked at random from those above, as already listed:
RABGAP1L isoform 5 (UniProt Q5R372)
inactive: alvocidib -0.065 | Tubastatin A 0.067 | [1] -0.03 | defactinib 0.055 | [2] 0.066 | encorafenib 0.01 | [3] -0.096 | alisertib -0.053 | [4] 0 | gefitinib 0.009

RAB28 (UniProt P51157)
inactive: alvocidib -0.024 | Tubastatin A -0.084 | [1] 0 | defactinib -0.019 | [2] -0.132 | encorafenib 0.024 | [3] 0.092 | [4] 0.04

(continued)

QARS1, A0A0U1RR66
inactive: [4] -0.071

RAD54L2 (UniProt Q9Y4B4)
inactive: alvocidib 0.007 | [1] -0.065 | defactinib -0.013 | [2] 0.093 | encorafenib 0.102 | [3] 0.153 | alisertib 0.141 | [4] -0.088 | gefitinib 0.045

RAC3 (UniProt P60763)
inactive: alvocidib 0.031 | [1] 0.021 | defactinib -0.072 | encorafenib 0.058 | [3] -0.072

PYHIN1 (UniProt Q6K0P9)
inactive: Tubastatin A 0.053 | [2] 0.049 | alisertib -0.267 | [4] 0.058 | gefitinib -0.244

R3HDM2 (UniProt B5MCU0)
inactive: Tubastatin A -0.176 | [1] -0.132 | encorafenib 0.068 | [3] -0.2

RANBP3 isoform 2 (UniProt Q9H6Z4)
inactive: Tubastatin A 0.079 | defactinib -0.178 | [2] 0.004 | encorafenib 0.038 | [3] -0.066 | alisertib 0.081 | [4] 0.025 | gefitinib 0.017

PYCARD isoform 2 (UniProt Q9ULZ3)
inactive: alvocidib -0.139 | Tubastatin A -0.036 | [1] -0.054 | [4] -0.149

RALGAPB isoform 3 (UniProt Q86X10)
inactive: alvocidib 0.161 | [2] 0.064 | encorafenib 0.073 | [3] 0.107
